The experiment is classed as in vivo, male Swiss albino mice. To be noted: subcutaneous. As to the method: The percent change is calculated according to the following equation: % change=100- (no. of writhes in treated group/no. of writhes in control group)×100.

`CN1CC[C@]23c4c5ccc(O)c4O[C@H]2[C@@H](O)C=C[C@H]3[C@H]1C5.O=S(=O)(O)O` [Morphine Sulfate, reference compound]: the “Analgesic action, inhibition action on phenylquinone writhing: dose giving 50 % inhibition” value (30 min before phenyl-p-benzoquinone, dose with 50 % inhibition) is reported as 0.038 mg/kg. Moreover, where the note is “at the dose listed for the substance under E1”, the “Analgesic action, inhibition action on phenylquinone writhing, % inhibition” value worked out at 50%.
